Experimental data from the supplement of paper PMC10849652.
Some of the results follow. Residues, ends and D or L forms follow the SMILES beside them. *: point of attachment. Cbz = O=C(OCc1ccccc1)*

Amino acid sequences for entries named in this document (tags omitted). A change or cut given only in a name is not applied to a line headed by its entry.
UniProt Q9NZN5: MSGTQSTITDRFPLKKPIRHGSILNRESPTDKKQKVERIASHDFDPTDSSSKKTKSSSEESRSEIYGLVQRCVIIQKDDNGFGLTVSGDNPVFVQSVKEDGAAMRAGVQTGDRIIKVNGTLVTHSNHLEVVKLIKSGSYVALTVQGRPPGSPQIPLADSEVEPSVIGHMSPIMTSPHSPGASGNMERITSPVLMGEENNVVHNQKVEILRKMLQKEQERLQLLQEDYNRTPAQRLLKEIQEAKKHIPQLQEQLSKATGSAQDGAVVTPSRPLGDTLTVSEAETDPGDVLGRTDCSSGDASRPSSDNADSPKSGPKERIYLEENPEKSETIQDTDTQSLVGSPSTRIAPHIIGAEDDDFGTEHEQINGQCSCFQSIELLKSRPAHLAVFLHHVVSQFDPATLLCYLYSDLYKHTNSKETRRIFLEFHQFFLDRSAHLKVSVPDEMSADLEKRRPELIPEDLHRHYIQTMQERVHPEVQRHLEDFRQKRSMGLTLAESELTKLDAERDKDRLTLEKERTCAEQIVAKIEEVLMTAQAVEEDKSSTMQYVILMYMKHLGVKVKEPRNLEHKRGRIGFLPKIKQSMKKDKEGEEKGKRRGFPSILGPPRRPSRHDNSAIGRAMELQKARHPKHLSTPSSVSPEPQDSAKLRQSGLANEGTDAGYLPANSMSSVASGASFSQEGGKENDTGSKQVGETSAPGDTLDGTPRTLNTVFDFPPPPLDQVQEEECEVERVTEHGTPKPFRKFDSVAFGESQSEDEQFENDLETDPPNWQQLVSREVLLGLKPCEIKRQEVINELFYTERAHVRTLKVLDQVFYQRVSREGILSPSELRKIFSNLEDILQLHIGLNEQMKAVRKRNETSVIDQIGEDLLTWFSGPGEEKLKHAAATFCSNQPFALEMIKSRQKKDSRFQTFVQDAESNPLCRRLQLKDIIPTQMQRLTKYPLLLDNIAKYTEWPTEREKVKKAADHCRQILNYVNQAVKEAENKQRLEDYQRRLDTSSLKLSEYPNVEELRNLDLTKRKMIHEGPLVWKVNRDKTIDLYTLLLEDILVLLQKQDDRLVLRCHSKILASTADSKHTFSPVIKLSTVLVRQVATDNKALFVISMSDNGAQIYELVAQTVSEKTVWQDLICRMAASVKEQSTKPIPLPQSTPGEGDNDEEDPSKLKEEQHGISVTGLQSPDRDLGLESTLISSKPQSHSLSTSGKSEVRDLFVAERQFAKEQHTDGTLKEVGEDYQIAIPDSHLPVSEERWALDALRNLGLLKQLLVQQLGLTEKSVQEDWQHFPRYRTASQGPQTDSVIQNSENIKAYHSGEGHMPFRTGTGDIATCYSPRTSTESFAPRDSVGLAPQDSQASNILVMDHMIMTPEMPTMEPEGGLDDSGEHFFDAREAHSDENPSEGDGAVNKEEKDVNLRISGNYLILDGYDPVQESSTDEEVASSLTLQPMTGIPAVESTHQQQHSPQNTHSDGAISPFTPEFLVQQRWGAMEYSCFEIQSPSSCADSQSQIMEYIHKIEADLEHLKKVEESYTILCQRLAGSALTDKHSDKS
UniProt P27695, whole entry, looked up: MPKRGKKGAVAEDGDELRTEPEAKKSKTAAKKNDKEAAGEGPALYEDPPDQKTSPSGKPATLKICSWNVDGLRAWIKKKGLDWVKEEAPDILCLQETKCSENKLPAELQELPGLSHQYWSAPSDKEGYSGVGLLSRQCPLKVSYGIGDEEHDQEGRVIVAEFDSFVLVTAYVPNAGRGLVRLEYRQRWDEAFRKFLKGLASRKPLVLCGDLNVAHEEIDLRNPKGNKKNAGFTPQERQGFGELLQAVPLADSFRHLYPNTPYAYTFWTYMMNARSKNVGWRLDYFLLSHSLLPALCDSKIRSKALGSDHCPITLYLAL
UniProt Q8N6T3: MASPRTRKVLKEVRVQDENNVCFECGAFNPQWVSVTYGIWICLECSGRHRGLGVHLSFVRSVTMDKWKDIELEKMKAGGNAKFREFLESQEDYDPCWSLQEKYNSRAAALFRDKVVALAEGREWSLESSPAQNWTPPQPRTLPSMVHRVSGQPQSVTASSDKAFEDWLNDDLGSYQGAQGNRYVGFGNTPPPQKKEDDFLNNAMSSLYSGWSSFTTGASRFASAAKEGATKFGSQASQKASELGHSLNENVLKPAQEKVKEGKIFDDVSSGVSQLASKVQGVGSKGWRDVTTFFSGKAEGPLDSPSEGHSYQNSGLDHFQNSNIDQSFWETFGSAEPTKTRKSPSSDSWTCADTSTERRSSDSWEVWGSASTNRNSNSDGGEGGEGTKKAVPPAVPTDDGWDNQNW
UniProt O43182: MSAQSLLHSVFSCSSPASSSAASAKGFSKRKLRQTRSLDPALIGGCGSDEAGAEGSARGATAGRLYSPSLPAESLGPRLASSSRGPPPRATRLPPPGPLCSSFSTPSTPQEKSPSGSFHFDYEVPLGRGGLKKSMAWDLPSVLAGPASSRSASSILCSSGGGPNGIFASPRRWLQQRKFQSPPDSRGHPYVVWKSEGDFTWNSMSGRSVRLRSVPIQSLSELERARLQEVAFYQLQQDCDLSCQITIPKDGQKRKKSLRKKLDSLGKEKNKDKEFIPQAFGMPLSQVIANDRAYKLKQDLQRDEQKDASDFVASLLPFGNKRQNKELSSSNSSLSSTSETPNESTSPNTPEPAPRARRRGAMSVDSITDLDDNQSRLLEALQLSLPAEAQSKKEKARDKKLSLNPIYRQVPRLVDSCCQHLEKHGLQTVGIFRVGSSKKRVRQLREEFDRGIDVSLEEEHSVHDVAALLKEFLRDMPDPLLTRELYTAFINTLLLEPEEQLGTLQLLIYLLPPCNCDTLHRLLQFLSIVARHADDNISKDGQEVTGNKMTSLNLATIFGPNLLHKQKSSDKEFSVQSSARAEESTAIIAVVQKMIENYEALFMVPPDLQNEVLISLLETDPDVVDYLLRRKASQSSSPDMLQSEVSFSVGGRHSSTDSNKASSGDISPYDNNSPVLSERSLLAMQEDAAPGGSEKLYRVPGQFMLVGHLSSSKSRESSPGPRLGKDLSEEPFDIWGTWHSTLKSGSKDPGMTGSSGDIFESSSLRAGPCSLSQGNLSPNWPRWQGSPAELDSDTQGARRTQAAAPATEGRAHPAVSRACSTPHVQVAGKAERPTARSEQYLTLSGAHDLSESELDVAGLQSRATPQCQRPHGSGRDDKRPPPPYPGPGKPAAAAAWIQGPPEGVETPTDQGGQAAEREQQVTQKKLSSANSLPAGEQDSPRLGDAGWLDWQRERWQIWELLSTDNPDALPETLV
UniProt Q96NW4, whole entry, looked up: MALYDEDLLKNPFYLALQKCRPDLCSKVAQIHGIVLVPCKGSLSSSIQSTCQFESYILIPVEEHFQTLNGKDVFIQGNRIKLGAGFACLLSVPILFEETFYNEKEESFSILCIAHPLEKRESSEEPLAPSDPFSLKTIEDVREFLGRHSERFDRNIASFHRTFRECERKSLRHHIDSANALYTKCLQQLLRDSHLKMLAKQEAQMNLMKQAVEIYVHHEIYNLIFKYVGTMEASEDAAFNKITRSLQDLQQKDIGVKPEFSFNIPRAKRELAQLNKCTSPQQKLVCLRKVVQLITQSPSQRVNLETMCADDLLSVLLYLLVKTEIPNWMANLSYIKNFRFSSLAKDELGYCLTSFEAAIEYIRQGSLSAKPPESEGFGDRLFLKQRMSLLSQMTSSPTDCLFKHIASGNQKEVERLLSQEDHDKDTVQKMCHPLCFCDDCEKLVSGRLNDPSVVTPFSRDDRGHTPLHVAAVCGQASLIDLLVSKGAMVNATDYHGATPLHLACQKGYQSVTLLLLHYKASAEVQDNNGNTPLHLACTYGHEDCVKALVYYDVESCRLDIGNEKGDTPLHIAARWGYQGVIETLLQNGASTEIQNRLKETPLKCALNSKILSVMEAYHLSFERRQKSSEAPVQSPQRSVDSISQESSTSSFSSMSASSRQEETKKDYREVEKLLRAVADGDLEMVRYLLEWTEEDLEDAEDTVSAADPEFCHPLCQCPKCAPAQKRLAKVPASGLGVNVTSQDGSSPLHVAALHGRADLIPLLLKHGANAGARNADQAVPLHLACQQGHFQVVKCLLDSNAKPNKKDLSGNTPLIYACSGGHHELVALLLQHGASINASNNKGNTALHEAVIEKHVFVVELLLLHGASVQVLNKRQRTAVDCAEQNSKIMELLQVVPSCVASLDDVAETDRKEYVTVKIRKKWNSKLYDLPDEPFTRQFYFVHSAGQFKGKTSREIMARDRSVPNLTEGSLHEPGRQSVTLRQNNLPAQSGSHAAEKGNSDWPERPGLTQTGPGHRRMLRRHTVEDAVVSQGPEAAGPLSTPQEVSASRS
UniProt P02749: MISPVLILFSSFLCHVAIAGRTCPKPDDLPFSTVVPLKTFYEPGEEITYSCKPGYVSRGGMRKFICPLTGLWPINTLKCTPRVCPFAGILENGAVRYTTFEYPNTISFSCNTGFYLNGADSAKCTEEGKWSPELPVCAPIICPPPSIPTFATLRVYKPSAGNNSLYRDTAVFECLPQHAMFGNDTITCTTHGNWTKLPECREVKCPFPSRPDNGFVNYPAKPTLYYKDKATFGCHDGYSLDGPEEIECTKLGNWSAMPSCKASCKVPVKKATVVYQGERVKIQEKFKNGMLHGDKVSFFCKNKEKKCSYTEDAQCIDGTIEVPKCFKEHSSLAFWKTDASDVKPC
UniProt P53367: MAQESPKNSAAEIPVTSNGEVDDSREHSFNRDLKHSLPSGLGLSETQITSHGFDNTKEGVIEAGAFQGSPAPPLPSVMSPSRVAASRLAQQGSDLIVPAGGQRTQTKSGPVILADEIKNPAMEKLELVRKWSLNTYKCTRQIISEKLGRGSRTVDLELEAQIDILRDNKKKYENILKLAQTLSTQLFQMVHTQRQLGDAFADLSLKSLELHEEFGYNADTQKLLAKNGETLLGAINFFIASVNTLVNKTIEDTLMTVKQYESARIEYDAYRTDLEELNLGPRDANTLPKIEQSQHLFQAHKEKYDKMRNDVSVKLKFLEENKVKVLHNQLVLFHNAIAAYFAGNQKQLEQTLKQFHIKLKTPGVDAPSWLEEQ
UniProt P56377: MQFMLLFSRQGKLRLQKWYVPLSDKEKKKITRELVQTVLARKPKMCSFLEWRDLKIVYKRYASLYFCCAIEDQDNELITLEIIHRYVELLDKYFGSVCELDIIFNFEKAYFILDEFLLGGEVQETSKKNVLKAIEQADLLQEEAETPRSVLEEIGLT
UniProt Q9Y6B7: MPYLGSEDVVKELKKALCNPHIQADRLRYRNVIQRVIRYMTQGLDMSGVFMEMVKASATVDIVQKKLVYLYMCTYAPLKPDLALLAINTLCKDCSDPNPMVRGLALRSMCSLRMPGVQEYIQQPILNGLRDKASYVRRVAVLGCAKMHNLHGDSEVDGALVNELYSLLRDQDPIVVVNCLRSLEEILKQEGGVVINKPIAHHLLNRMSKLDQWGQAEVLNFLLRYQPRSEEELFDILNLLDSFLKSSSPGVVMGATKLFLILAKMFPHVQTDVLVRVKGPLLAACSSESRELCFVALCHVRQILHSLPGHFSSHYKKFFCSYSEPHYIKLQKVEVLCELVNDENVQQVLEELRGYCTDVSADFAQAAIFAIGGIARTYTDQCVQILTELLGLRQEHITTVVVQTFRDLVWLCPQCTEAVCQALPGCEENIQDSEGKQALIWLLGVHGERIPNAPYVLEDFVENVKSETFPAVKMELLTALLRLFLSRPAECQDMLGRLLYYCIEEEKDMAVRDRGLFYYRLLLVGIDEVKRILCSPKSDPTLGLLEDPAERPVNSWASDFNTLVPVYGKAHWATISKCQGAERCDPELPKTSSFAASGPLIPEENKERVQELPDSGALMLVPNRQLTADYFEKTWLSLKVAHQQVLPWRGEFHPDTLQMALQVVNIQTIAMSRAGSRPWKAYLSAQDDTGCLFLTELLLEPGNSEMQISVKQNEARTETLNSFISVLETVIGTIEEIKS
UniProt Q92624: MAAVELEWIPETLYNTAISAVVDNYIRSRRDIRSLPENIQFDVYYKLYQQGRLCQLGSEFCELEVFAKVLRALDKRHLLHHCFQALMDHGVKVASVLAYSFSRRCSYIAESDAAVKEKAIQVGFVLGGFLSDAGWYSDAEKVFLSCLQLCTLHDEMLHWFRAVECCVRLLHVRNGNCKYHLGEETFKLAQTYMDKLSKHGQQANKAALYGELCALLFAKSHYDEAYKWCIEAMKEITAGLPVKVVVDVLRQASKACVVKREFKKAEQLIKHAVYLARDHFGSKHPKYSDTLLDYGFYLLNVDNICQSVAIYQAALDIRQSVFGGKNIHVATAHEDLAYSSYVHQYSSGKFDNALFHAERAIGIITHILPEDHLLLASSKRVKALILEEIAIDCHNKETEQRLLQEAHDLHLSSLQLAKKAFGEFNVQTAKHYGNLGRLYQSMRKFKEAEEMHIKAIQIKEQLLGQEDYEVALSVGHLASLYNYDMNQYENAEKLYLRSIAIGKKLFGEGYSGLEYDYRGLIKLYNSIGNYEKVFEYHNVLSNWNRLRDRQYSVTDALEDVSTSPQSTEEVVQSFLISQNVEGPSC

Assays:
Test in all cases: log2 fold change, soluble protein after heating vs DMSO (PISA); higher = thermal stabilisation; K562 cells, 10 uM, 30 min; active = over 0.2 and 3.5 SD of the protein, either way, in both replicates (recomputed)
IRAK-1-4 Inhibitor I = compound: C1COCCN1CCN2C3=CC=CC=C3N=C2NC(=O)C4=CC(=CC=C4)[N+](=O)[O-] [IRAK-1-4 Inhibitor I]
Method in brief: (§1)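 Aliquots of K562 cells (2×10^6 cells/mL) treated with 10 μM compound for 30 min were heated for 3 min over 48°C-58°C. After pooling and extraction in PBS with 0.5% NP-40 at 4°C, soluble protein from a 21,000xg, 90 min spin was quantified by TMTpro 16plex LC-MS/MS with channel sums equalised. Thermal stability is expressed against control samples, from duplicates, as a log2 fold change.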

ibrutinib = compound: C=CC(=O)N1CCC[C@@H](n2nc(-c3ccc(Oc4ccccc4)cc3)c3c(N)ncnc32)C1 [ibrutinib]
Method in brief: as §1

[1] = compound: CC(=O)c1cnc2ccc(-c3cc(Cl)c(O)c(Cl)c3)nc2c1N[C@H]1CC[C@H](CN(C)C)CC1
Method in brief: as §1

ralimetinib = compound: CC(C)(C)Cn1c(N)nc2ccc(-c3[nH]c(C(C)(C)C)nc3-c3ccc(F)cc3)nc21 [ralimetinib]
Method in brief: as §1

[2] = compound: CC(C)(O)CC(=O)NCCn1ccc2ncnc(Nc3ccc(Oc4cccc(C(F)(F)F)c4)c(Cl)c3)c21
Method in brief: as §1

[3] = compound: CC(C)C1=C2N=C(C=C(N2N=C1)NCC3=CC=CC=C3)NCCCCCCN
Method in brief: as §1

[4] = compound: CC(C)C[C@@H](C=O)NC(=O)[C@H](CC(C)C)NC(=O)[C@H](CC(C)C)NC(=O)OCc1ccccc1
Method in brief: as §1

pinometostat = compound: CC(C)N(C[C@H]1O[C@@H](n2cnc3c(N)ncnc32)[C@H](O)[C@@H]1O)[C@H]1C[C@@H](CCc2nc3cc(C(C)(C)C)ccc3[nH]2)C1 [pinometostat]
Method in brief: as §1

[5] = compound: CC1=C(C2=C(C=C1)C(=O)C3=CC=CC=C3N2CCCN)C
Method in brief: as §1

[6] = compound: CC1=C(C(CC(=O)N1)C2=CC=C(C=C2)C(F)(F)F)C(=O)NC3=C(C=C4C(=C3)C=NN4)F
Method in brief: as §1

Measured: log2 fold change

ARFGAP2 (UniProt Q8N6H7)
inactive: IRAK-1-4 Inhibitor I -0.016 | ibrutinib -0.064 | [1] -0.014 | ralimetinib -0.001 | [2] -0.032 | [3] 0.062 | [4] -0.005 | pinometostat 0.046 | [5] 0.005

ARFGEF1 (UniProt Q9Y6D6)
inactive: IRAK-1-4 Inhibitor I 0.016 | ibrutinib -0.061 | [1] 0.036 | ralimetinib 0.132 | [2] -0.018 | [3] 0.051 | [4] -0.019 | pinometostat 0.001 | [5] 0.07

APC (UniProt P25054)
inactive: IRAK-1-4 Inhibitor I -0.091 | ibrutinib 0.144 | [1] -0.272 | ralimetinib -0.117 | [2] 0.021 | [3] -0.504 | [4] 0.239 | pinometostat 0.152 | [5] -0.022

ARHGEF12 (UniProt Q9NZN5)
inactive: IRAK-1-4 Inhibitor I -0.148 | ibrutinib 0.214 | [1] 0.037 | ralimetinib 0.119 | [2] 0.083 | [3] -0.053 | [4] -0.032 | pinometostat 0.193 | [5] -0.001

ANKZF1 (UniProt Q9H8Y5)
inactive: IRAK-1-4 Inhibitor I -0.052 | ibrutinib 0.031 | [1] -0.19 | ralimetinib 0.189 | [2] 0 | [3] -0.065 | [4] 0.192 | pinometostat 0.136 | [5] -0.069

AP3D1 isoform 5 (UniProt O14617)
inactive: IRAK-1-4 Inhibitor I -0.049 | ibrutinib -0.013 | [1] -0.039 | ralimetinib 0.049 | [2] -0.045 | [3] -0.043 | [4] 0.011 | pinometostat 0.043 | [6] 0.019 | [5] -0.034

APEX1 (UniProt P27695)
inactive: IRAK-1-4 Inhibitor I 0.021 | ibrutinib -0.029 | [1] -0.031 | ralimetinib 0.009 | [2] -0.085 | [3] -0.115 | [4] -0.074 | pinometostat -0.034 | [6] -0.027 | [5] 0.001

ANP32E (UniProt Q9BTT0)
inactive: IRAK-1-4 Inhibitor I 0.016 | ibrutinib 0.019 | [1] -0.128 | ralimetinib -0.035 | [2] -0.067 | [3] -0.181 | [4] -0.036 | pinometostat 0.028 | [5] -0.214

ARGLU1 (UniProt Q9NWB6)
inactive: IRAK-1-4 Inhibitor I -0.289 | ibrutinib -0.019 | ralimetinib -0.029 | [2] 0.15 | [3] 0.023 | [4] -0.001 | pinometostat 0.127 | [5] 0.134
active: [1] -0.633

AREG (UniProt P15514)
inactive: IRAK-1-4 Inhibitor I -0.114 | [1] 0.09 | [3] 0.207 | pinometostat 0.049

AP2M1 (UniProt Q96CW1)
inactive: IRAK-1-4 Inhibitor I -0.049 | ibrutinib 0.043 | [1] -0.043 | ralimetinib 0.036 | [2] 0.022 | [3] 0.045 | [4] 0.011 | pinometostat 0.026 | [5] 0.079

ARAP1 (UniProt Q96P48)
inactive: IRAK-1-4 Inhibitor I -0.214 | ibrutinib -0.132 | ralimetinib 0.225 | [2] 0.034 | [4] 0.159 | pinometostat 0.324 | [6] 0.072 | [5] 0.039

ARFGAP1 (UniProt Q8N6T3)
inactive: IRAK-1-4 Inhibitor I -0.008 | ibrutinib 0.005 | [1] -0.013 | ralimetinib 0.07 | [2] -0.012 | [3] -0.11 | [4] -0.017 | pinometostat -0.027 | [5] 0.002

AP3M2 (UniProt P53677)
inactive: IRAK-1-4 Inhibitor I -0.132 | ibrutinib -0.057 | [3] -0.017 | pinometostat 0.121

ARHGAP35 (UniProt Q9NRY4)
inactive: IRAK-1-4 Inhibitor I 0.013 | [1] -0.107 | ralimetinib 0.226 | [2] -0.02 | [3] -0.213 | [4] 0.105 | pinometostat -0.117 | [5] -0.035

ARHGAP6 (UniProt O43182)
inactive: IRAK-1-4 Inhibitor I -0.121 | [1] -0.039 | ralimetinib 0.145 | [2] 0.058 | [4] 0.188 | pinometostat 0.219 | [6] -0.105 | [5] -0.098

ANKRD27 (UniProt Q96NW4)
inactive: IRAK-1-4 Inhibitor I -0.162 | ralimetinib 0.375 | [4] 0.162 | pinometostat 0.613

ANLN (UniProt Q9NQW6)
inactive: IRAK-1-4 Inhibitor I 0.054 | ibrutinib 0.24 | ralimetinib 0.211 | [2] 0.038 | [3] -0.417 | [4] 0.034 | pinometostat 0.154 | [6] 0

AP4S1 (UniProt Q9Y587)
inactive: IRAK-1-4 Inhibitor I -0.061 | ibrutinib -0.12 | [1] 0.008 | [2] -0.079 | [3] 0 | pinometostat -0.145

AQR (UniProt O60306)
inactive: IRAK-1-4 Inhibitor I -0.006 | [1] -0.014 | ralimetinib 0.034 | [2] -0.026 | [3] -0.068 | [4] 0.045 | pinometostat -0.027 | [5] -0.014

ANPEP (UniProt P15144)
inactive: IRAK-1-4 Inhibitor I -0.032 | [1] -0.376 | ralimetinib 0.005 | [3] -0.048 | [4] -0.133 | pinometostat -0.009 | [6] 0.028 | [5] 0.085

Two records drawn at random from the list so far:
ANKZF1 (UniProt Q9H8Y5)
inactive: IRAK-1-4 Inhibitor I -0.052 | ibrutinib 0.031 | [1] -0.19 | ralimetinib 0.189 | [2] 0 | [3] -0.065 | [4] 0.192 | pinometostat 0.136 | [5] -0.069

AREG (UniProt P15514)
inactive: IRAK-1-4 Inhibitor I -0.114 | [1] 0.09 | [3] 0.207 | pinometostat 0.049

The list goes on:

APOH (UniProt P02749)
inactive: IRAK-1-4 Inhibitor I 0.13 | ibrutinib 0.155 | [1] 0.211 | ralimetinib -0.131 | [3] -0.067 | [4] 0.119 | pinometostat -0.117 | [5] -0.126

ARFIP1 isoform 2 (UniProt P53367)
inactive: IRAK-1-4 Inhibitor I -0.051 | ibrutinib -0.055 | [2] -0.186 | [3] -0.048 | pinometostat 0.043

AP1S2 (UniProt P56377)
inactive: IRAK-1-4 Inhibitor I 0 | ibrutinib -0.071 | [1] -0.013 | [2] -0.174 | pinometostat -0.026 | [6] 0.005

ANKS1A (UniProt Q92625)
inactive: IRAK-1-4 Inhibitor I -0.147 | ibrutinib -0.149 | [1] 0.112 | ralimetinib 0.288 | [2] -0.074 | [4] 0.153 | pinometostat 0.298 | [5] 0.239

ANK2 (UniProt Q01484)
active: [5] 0.423
inactive: IRAK-1-4 Inhibitor I -0.069 | ibrutinib -0.024 | [1] -0.058 | ralimetinib -0.029 | [3] -0.178 | [4] 0.08 | pinometostat 0.062

AP4B1 (UniProt Q9Y6B7)
inactive: IRAK-1-4 Inhibitor I -0.205 | ibrutinib -0.008 | [1] 0.018 | [3] -0.192 | pinometostat 0.126 | [6] -0.126 | [5] -0.155

AP2M1 (UniProt C9JTK4)
inactive: IRAK-1-4 Inhibitor I 0.056 | ibrutinib -0.044 | [1] 0.049 | [2] 0.005 | pinometostat 0.03 | [5] 0.001

AP2S1 (UniProt P53680)
inactive: IRAK-1-4 Inhibitor I -0.054 | ibrutinib -0.01 | [1] -0.117 | ralimetinib -0.017 | [2] -0.003 | [3] 0.028 | [4] -0.07 | pinometostat 0.038 | [5] 0.091

APPBP2 (UniProt Q92624)
inactive: IRAK-1-4 Inhibitor I 0.05 | ibrutinib 0.02 | ralimetinib 0.024 | [4] 0.134 | pinometostat 0.274 | [6] 0.041 | [5] 0.006

ANKRD52 (UniProt Q8NB46)
inactive: IRAK-1-4 Inhibitor I -0.074 | [1] -0.026 | ralimetinib 0.064 | [2] -0.046 | [3] -0.056 | [4] 0.045 | pinometostat 0.055 | [6] -0.085 | [5] -0.122

AP5M1 (UniProt Q9H0R1)
inactive: IRAK-1-4 Inhibitor I 0.002 | ibrutinib 0.027 | ralimetinib 0.049 | [2] 0.065 | [4] 0.165 | pinometostat -0.058 | [6] -0.05
